PubChem BioAssay AID1224830 | NIAID, 2016
Shown is an unselected part of about 18,000 reagents. About 2,900 of all reagents (16%) count as active. 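Calls are made per well; low scores hint the gene aids the LPS response, high scores that it dampens it.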 Repeated entries: four replicate wells of each siRNA pool.

Test: 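Genes whose knock-down alters the TNF-alpha reporter response to LPS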 (primary screen)
Cell system: human THP-1 monocytic leukaemia cells, TNF dual-luciferase reporter clone, PMA-differentiated to macrophage-like cells
Knock-down reagent: siRNA pool against human genes, 50 nM
Time to read-out: LPS for 4 h, given about 3 days after siRNA transfection
Conditions: bacterial LPS (TLR4 ligand), 10 ng/ml
Read-out: 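TNF firefly reporter luminescence divided by renilla, normalised to the plate median, then turned into a robust z-score for each replicate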
Scale: TNF reporter robust z-score: higher = stronger TNF reporter response to LPS
Rule for the call: 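a well is active when its z-score exceeds 2.8 or falls below -1.5; control wells carry no call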

The opening 5 entries, to show the layout:
| gene | TNF reporter robust z-score | Outcome |
| --- | --- | --- |
| LGALSL (GeneID 29094) | -0.73 | inactive |
| LGALSL (GeneID 29094) | -0.92 | inactive |
| LGALSL (GeneID 29094) | -1.71 | active |
| LGALSL (GeneID 29094) | -0.55 | inactive |
| GARIN2 (GeneID 161142) | -0.14 | inactive |

The list itself, from the first entry:
| gene | TNF reporter robust z-score | Outcome |
| --- | --- | --- |
| LGALSL (GeneID 29094) | -0.73 | inactive |
| LGALSL (GeneID 29094) | -0.92 | inactive |
| LGALSL (GeneID 29094) | -1.71 | active |
| LGALSL (GeneID 29094) | -0.55 | inactive |
| GARIN2 (GeneID 161142) | -0.14 | inactive |
| GARIN2 (GeneID 161142) | -0.41 | inactive |
| GARIN2 (GeneID 161142) | -0.7 | inactive |
| GARIN2 (GeneID 161142) | -0.1 | inactive |
| SH2D3A (GeneID 10045) | 0.67 | inactive |
| SH2D3A (GeneID 10045) | -0.39 | inactive |
| SH2D3A (GeneID 10045) | 0.84 | inactive |
| SH2D3A (GeneID 10045) | 1.91 | inactive |
| BAALC (GeneID 79870) | 0.29 | inactive |
| BAALC (GeneID 79870) | -0.43 | inactive |
| BAALC (GeneID 79870) | -0.93 | inactive |
| BAALC (GeneID 79870) | -1.17 | inactive |
| MLC1 (GeneID 23209) | 0.14 | inactive |
| MLC1 (GeneID 23209) | -0.22 | inactive |
| MLC1 (GeneID 23209) | -0.32 | inactive |
| MLC1 (GeneID 23209) | 0.56 | inactive |
| CLDN4 (GeneID 1364) | -0.36 | inactive |
| CLDN4 (GeneID 1364) | 0.97 | inactive |
| CLDN4 (GeneID 1364) | -0.63 | inactive |
| CLDN4 (GeneID 1364) | -0.45 | inactive |
| PRR4 (GeneID 11272) | -0.02 | inactive |
| PRR4 (GeneID 11272) | 1.24 | inactive |
| PRR4 (GeneID 11272) | 0.77 | inactive |
| PRR4 (GeneID 11272) | 0.41 | inactive |
| OR14I1 (GeneID 401994) | 3.63 | active |
| OR14I1 (GeneID 401994) | 3.54 | active |
| OR14I1 (GeneID 401994) | 3.68 | active |
| OR14I1 (GeneID 401994) | 1.27 | inactive |
| CRLF2 (GeneID 64109) | 2.99 | active |
| CRLF2 (GeneID 64109) | -0.27 | inactive |
| CRLF2 (GeneID 64109) | 0.73 | inactive |
| CRLF2 (GeneID 64109) | 0.18 | inactive |
| UGT1A4 (GeneID 54657) | -0.02 | inactive |
| UGT1A4 (GeneID 54657) | 0.73 | inactive |
| UGT1A4 (GeneID 54657) | 0.04 | inactive |
| UGT1A4 (GeneID 54657) | 1.25 | inactive |
| RTTN (GeneID 25914) | -0.74 | inactive |
| RTTN (GeneID 25914) | -0.32 | inactive |
| RTTN (GeneID 25914) | -0.21 | inactive |
| RTTN (GeneID 25914) | 0.06 | inactive |
| GPALPP1 (GeneID 55425) | 1.5 | inactive |
| GPALPP1 (GeneID 55425) | 1.44 | inactive |
| GPALPP1 (GeneID 55425) | 1.17 | inactive |
| GPALPP1 (GeneID 55425) | 0.68 | inactive |
